Laboratory results published in publication PMC3176784.

Columns and labels:
Assay in all cases: pull-down; GST fusion proteins with portions of PLC-β3-CT mixed with precleared lysates of Ba/F3 cells (with or without IL-3), 2 h at 4°C; lysis buffer 20 mM Tris-HCl pH 8.0, 150 mM NaCl, 1 mM EDTA, 1% Nonidet P-40; six washes; immunoblot with anti-Stat5 or anti-SHP-1; only the target purified
[1] = target: T1, PLC-β3 region c (positions 1032–1069) (mouse) (UniProt P51432)
T1 sequence: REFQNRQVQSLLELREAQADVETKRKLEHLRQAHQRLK

[2] = target: T2, PLC-β3 region a (positions 917–943) (mouse) (UniProt P51432)
T2 sequence: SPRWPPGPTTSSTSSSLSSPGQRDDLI

[3] = target: T3, PLC-β3 region b (positions 983–1000) (mouse) (UniProt P51432)
T3 sequence: QRKAVALTRRLLDGLAQA

[4] = target: T4, GST fusion protein of PLC-β3 residues 983–1234 (mouse) (UniProt P51432)
T4 sequence: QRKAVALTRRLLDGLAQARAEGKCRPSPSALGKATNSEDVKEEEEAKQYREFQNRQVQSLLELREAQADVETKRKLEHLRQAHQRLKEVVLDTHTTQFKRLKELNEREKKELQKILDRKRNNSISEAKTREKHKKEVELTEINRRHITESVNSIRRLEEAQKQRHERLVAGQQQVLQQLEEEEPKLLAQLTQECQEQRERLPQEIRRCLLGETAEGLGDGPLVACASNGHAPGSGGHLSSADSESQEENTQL

Measured: binding

Stat5 (mouse (endogenous in Ba/F3))
binds: all assays above

These are yes or no findings as the source states them, for the method shown. Binding seen in cells or lysates may run through a third protein. Binding calls can cover weak binding; strength is not graded here. For some of these results: Tags and fused reporters may be left off the sequences shown.
